Laboratory results published in PubChem BioAssay AID1347076 (National Center for Advancing Translational Sciences (NCATS), 2019).
Screen size: about 400,000 compounds; about 13,000 (3.2%) were called active. Inconclusive means that the source gave no clear call. Such entries were picked first, then a sample of the others. The call rests on the fitted dose curve; in most records, active means well fitted cell-killing curve with a large enough effect; inconclusive means small, poorly fitted or top-dose-only effect, or effect the other way; inactive means flat fitted curve, though single readings scatter. Potencies of inconclusive entries are doubtful fits and often do not repeat.

Assay: qHTS assay for MDR1-selective chemotherapeutics: Primary screen using the drug-selected MDR subline cells KB-V1; further: nearly all actives have a fitted effect of over 60% in size
Conditions: KB-V1 MDR cells viability, CellTiter-Glo, 72 h; activity change, negative = cytotoxicity: at 46.1 µM (top of the series)
Summary of the method: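 KB-V1, DMEM (no phenol red) + 10% FBS; cpd pin-transferred, titration series; 72 h, 37 degrees C; CellTiter-Glo, luminescence. Data normalized, curve-fit.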
On the % scale 0 is the no-effect control and ±100 the full control effect; potency means the concentration at half of the fitted maximal effect.

| Structure (SMILES) | Potency | activity change, negative = cytotoxicity |
| --- | --- | --- |
| COc1ccc(Cl)cc1NC(=O)CN(C)C(=O)c1cc(-c2ccncc2)nc2ccccc12 | inconclusive: 16.4 µM [cytotoxic, partial curve] |  |
| CCOC(=O)c1c(NC(=O)CSc2nnc(-c3ccncc3)n2Cc2ccco2)sc(C)c1C | inconclusive: 16.4 µM [cytotoxic, partial curve] |  |
| O=C(NC(=S)N1CCN(c2ccc(Cl)cc2[N+](=O)[O-])CC1)c1cccs1 | inconclusive: 29.1 µM [cytotoxic, single point] |  |
| CCc1nc2ccc(C(=O)NC3CCN(Cc4ccccc4)CC3)cn2c1N(C)Cc1cccs1 |  | inactive: -28.9% |
| COc1ccccc1N1CCN(Cc2cccs2)CC1 | inconclusive: 25.9 µM [cytotoxic, partial curve, poor fit] |  |
| N#C/C(=C\c1ccc(Br)s1)C(=O)N1CCN(c2ccccc2)CC1 | active: 18.4 µM |  |
| Cc1cc(N)c(-n2cc3c(c2-c2ccc(Br)cc2)c(=O)n(C)c(=O)n3C)cc1C | inconclusive: 23.1 µM [cytotoxic, single point] |  |
| COc1ccc(C(C)NC(=O)c2ccc([N+](=O)[O-])cc2)cc1OC (stereo not given) | active: 20.6 µM |  |
| O=C(c1ccco1)N1CCN(c2c([N+](=O)[O-])nn(-c3cccc(Cl)c3)[n+]2[O-])CC1 |  | inactive: 0% |
| CCCNC(=O)NC(=O)CSc1nc2cc(C(=O)OC)ccc2c(=O)n1-c1ccccc1 |  | inactive: -13.3% |
| NS(=O)(=O)c1cccc(NC(=O)CSc2nc3ccccc3n2-c2ccccc2)c1 | inconclusive: 14.6 µM [cytotoxic, partial curve] |  |
| CCn1c(CNc2ccc(Cl)cc2)nnc1SCc1ccc(C)cc1 | inconclusive: 20.6 µM [cytotoxic, partial curve, poor fit] |  |
| N#CCCS(=O)(=O)c1ccc(N)cc1 | inconclusive: 10.3 µM [rising, partial curve, poor fit] |  |
| CCOc1ccc(NC(=O)C(Cc2ccccc2)NC(=O)C2CCCCC2)cc1 (stereo not given) | inconclusive: 1.84 µM [cytotoxic, partial curve, poor fit] |  |
| C/C(=N\NC(=O)c1ccccc1NC(=O)c1ccc(Cl)cc1)c1ccncc1 | active: 1.3 µM |  |
| O=C(O)CCCNc1cc(N2CCN(C3CCCCC3)CC2)c2noc3c2c1C(=O)c1ccccc1-3 | inconclusive: 20.6 µM [rising, single point] |  |
| CS(=O)(=O)Nc1ccc(C(=O)N2CCc3ccccc3C2)cc1 |  | inactive: 4.54% |
| C=CCN(CC=C)S(=O)(=O)c1ccc2nc(NC(=O)C(C)C)sc2c1 | inconclusive: 16.4 µM [cytotoxic, partial curve, poor fit] |  |
| Cc1noc(C)c1C(=O)N1CCN(C(=O)c2sc3cc(Cl)ccc3c2Cl)CC1 | active: 23.1 µM |  |
| O=C1OCCC1Sc1nnc(-c2ccc3c(c2)OCO3)o1 (stereo not given) |  | inactive: 4% |
| Cc1cccnc1C1=NOC(Cc2ccccc2)C(=O)N1Cc1ccc(F)cc1 (stereo not given) | inconclusive: 10.3 µM [cytotoxic, partial curve, poor fit] |  |
| COc1cc(C(=O)N2CC(C)OC(C)C2)c([N+](=O)[O-])cc1OC (stereo not given) | inconclusive: 5.17 µM [rising, partial curve, poor fit] |  |
| CC1(C(=O)NC2CCN(Cc3ccccc3)CC2)CCN1Cc1ccc(OC(F)(F)F)cc1 (stereo not given) | inconclusive: 20.6 µM [cytotoxic, single point] |  |
| CN(C(=O)COC(=O)c1ccc(Cl)c(S(=O)(=O)N2CCCCC2)c1)C1(C#N)CCCCC1 |  | inactive: -9.55% |

| Structure (SMILES) | Potency | activity change, negative = cytotoxicity |
| --- | --- | --- |
| COc1ccccc1CNc1nc(Nc2ccc(C)cc2C)c2sccc2n1 | inconclusive: 20.6 µM [cytotoxic, single point] |  |
| Cc1cc(Cl)ccc1N=C1N=C(N)c2ccccc21 |  | inactive: -19.8% |
| Cc1cc(-c2ccc(C(C)C)c(S(=O)(=O)N3CCN(c4ccccc4)CC3)c2)on1 | active: 11.6 µM |  |
| COc1ccc(-n2c(C)cc(/C=C3\SC(=S)N(Cc4ccco4)C3=O)c2C)cc1 |  | inactive: -6.07% |
| COc1ccc(C2C(C(=O)N3CCN(c4ccccc4)CC3)c3ccccc3C(=O)N2C)cc1 (stereo not given) | inconclusive: 10.3 µM [cytotoxic, partial curve, poor fit] |  |
| C=CCc1ccccc1OCC(O)CN1CCN(C(=O)OCC)CC1 (stereo not given) | inconclusive: 2.06 µM [cytotoxic, full curve] |  |
| CN1C(=O)[C@H]2[C@@H](c3ccc(C(F)(F)F)cc3)N[C@]3(CCCN(Cc4ccco4)C3=O)[C@H]2C1=O | inconclusive: 5.8 µM [rising, full curve] |  |
| O=C([C@@H]1CC=C[C@@H]2CCN(C3CCCCC3)C(=O)[C@@H]21)N1CCN(c2ccccc2)CC1 | inconclusive: 3.26 µM [cytotoxic, partial curve, poor fit] |  |
| O=C(CNCc1ccccn1)Nc1ccc([N+](=O)[O-])cc1C(=O)Nc1ccccc1F | inconclusive: 2.31 µM [cytotoxic, full curve] |  |
| COc1ccc(S(=O)(=O)N(C)C[C@H]2Oc3ccc(NC(=O)Cc4cn(C)c5ccccc45)cc3C(=O)N([C@@H](C)CO)C[C@@H]2C)cc1 | inconclusive: 6.51 µM [rising, full curve, poor fit] |  |
| Cc1cccc(NC(=O)CN2C(=O)C3CC=CCC3C2=O)c1C (stereo not given) |  | inactive: 17.3% |
| Cc1ccccc1Cn1c(Cc2ccccc2)nc2ccccc21 | inconclusive: 16.4 µM [cytotoxic, single point] |  |
| Fc1ccc(-c2csc3ncnc(N4CCN(c5ccccc5)CC4)c23)cc1 | inconclusive: 13 µM [cytotoxic, single point] |  |
| Cc1cc(Nc2cccc(Cl)c2)nc(NCc2ccccc2)n1 |  | inactive: 0% |
| CC(=O)Nc1cc(C(=O)CSc2nnc(C3CC3)n2C2CC2)ccc1O | inconclusive: 0.0103 µM [rising, full curve] |  |
| Cc1csc(=O)n1CCC(=O)OC(C)C(=O)NCc1ccccc1 (stereo not given) |  | inactive: 7.74% |
| OCCN1CCN(C(c2ccccc2Cl)c2sc3nc(-c4ccco4)nn3c2O)CC1 (stereo not given) |  | inactive: -3.14% |
| Cc1ncsc1C(=O)N1CCCC(CNS(=O)(=O)c2cccs2)C1 (stereo not given) | inconclusive: 29.1 µM [rising, partial curve, poor fit] |  |
| CC(Nc1ccc(Br)cc1)C(=O)Nc1cccc(S(=O)(=O)N2CCOCC2)c1 (stereo not given) |  | inactive: -7.68% |
| CCN=C1S/C(=C\c2cc(OCC)c(O)cc2Br)C(=O)N1CC |  | inactive: -9.79% |
| CC(C)C[C@H]1COc2cc(N3CCC[C@H]3CO)ccc2S(=O)(=O)N1 | inconclusive: 23.1 µM [cytotoxic, partial curve, poor fit] |  |
| CC(C)C[C@H](NC(=O)c1[nH]cnc1C(=O)N[C@@H](Cc1ccccc1)C(=O)OC(C)(C)C)C(=O)OCc1ccccc1 |  | inactive: -24.1% |
| COc1ccccc1-c1nc2c(c(SCC(=O)N3CCCCC3)n1)Cc1c(CO)cnc(C)c1O2 |  | inactive: 10.7% |
| CSc1nc2ccc(Br)cc2[nH]1 |  | inactive: -9.74% |

2 compounds drawn at random from the list so far:

| Structure (SMILES) | Potency | activity change, negative = cytotoxicity |
| --- | --- | --- |
| Cc1ncsc1C(=O)N1CCCC(CNS(=O)(=O)c2cccs2)C1 (stereo not given) | inconclusive: 29.1 µM [rising, partial curve, poor fit] |  |
| Cc1ccccc1Cn1c(Cc2ccccc2)nc2ccccc21 | inconclusive: 16.4 µM [cytotoxic, single point] |  |

Remaining list, next part.

| Structure (SMILES) | Potency | activity change, negative = cytotoxicity |
| --- | --- | --- |
| COc1ccccc1CNC(=O)C1CC2Cn3c(nc4cc(Cl)c(Cl)cc43)C2N1C (stereo not given) |  | inactive: 27% |
| CCCOC(=O)c1c(NC(=O)C2c3ccccc3Oc3ccccc32)sc2c1CCCC2 |  | inactive: 3.7% |
| COc1ccc(S(=O)(=O)N2CCCC2CNC(=O)C(=O)Nc2ccc(C)cc2)cc1 (stereo not given) |  | inactive: -6.2% |
| Cc1ccc(C#CC[N+](C)(C)CC#Cc2ccccc2)cc1 |  | inactive: 13.7% |
| C/C(=N\NC(=O)c1nc2ccccn2c1C)c1cccc([N+](=O)[O-])c1 | inconclusive: 9.2 µM [cytotoxic, partial curve] |  |
| Nc1ccc(-c2cc3ccccc3oc2=O)cc1 |  | inactive: -20.2% |
| Clc1cccc(-c2nnc(SC/C=C/c3ccccc3)n2Cc2ccco2)c1 | inconclusive: 29.1 µM [cytotoxic, single point] |  |
| Cc1cc(CNC(=O)c2cccc3c2C(=O)c2ccc(-c4ccc(F)cc4OCc4ccccc4)cc2S3(=O)=O)c(C(F)(F)F)o1 |  | inactive: -4.11% |
| COc1ccc(NC(=O)CCCSc2nc(-c3ccco3)cc(C(F)(F)F)n2)c(OC)c1 |  | inactive: -15% |
| CCOCCCNc1nc2c(C)cccn2c(=O)c1/C=C1\SC(=S)N(C(C)CC)C1=O (stereo not given) | inconclusive: 4.11 µM [cytotoxic, full curve, poor fit] |  |
| Cc1ccc(C2(CCN)CCOC(C(C)C)C2)cc1 (stereo not given) | inconclusive: 23.1 µM [cytotoxic, partial curve, poor fit] |  |
| COc1cccc(N2CCN(C(=O)CSc3ccc(F)cc3)CC2)c1 | inconclusive: 13 µM [cytotoxic, partial curve] |  |
| CCCNC(=O)CSc1nc(-c2cccs2)cc(C(F)(F)F)n1 | inconclusive: 16.4 µM [cytotoxic, single point] |  |
| COc1cc(NC(=O)Cn2nnc(-c3ccc(C(F)(F)F)cc3)n2)c(C(=O)O)cc1OC |  | inactive: 18.7% |
| Cc1nc(-c2ccc(Cl)cc2)sc1C1(C)CC(c2ccc([N+](=O)[O-])cc2)=NO1 (stereo not given) |  | inactive: -24.8% |
| COc1ccc(/C=N/Nc2ccccn2)c(OC)c1OC | inconclusive: 29.1 µM [cytotoxic, single point] |  |
| Cc1ccc(OCC(=O)Nc2ccc(C)c(S(=O)(=O)N3CCCCC3)c2)c([N+](=O)[O-])n1 | inconclusive: 7.31 µM [cytotoxic, partial curve, poor fit] |  |
| CCNS(=O)(=O)c1ccc(CCC(=O)N2CCN(c3cc(Cl)ccc3C)CC2)cc1 | active: 14.6 µM |  |
| COc1ccccc1/C=N\Nc1cn[nH]c(=O)c1Cl | active: 8.2 µM |  |
| Cc1cccc(C)c1NC(=O)CN(Cc1ccccc1)Cc1ccccc1 | inconclusive: 29.1 µM [cytotoxic, single point] |  |
| Cc1ccc(SCC(=O)Nc2cc([N+](=O)[O-])ccc2O)cc1 |  | inactive: -2.31% |
| O=C(Cc1ccccc1[N+](=O)[O-])OCC(=O)c1ccccc1Br | inconclusive: 20.6 µM [rising, single point] |  |

Structures above with an NH in an aromatic ring:

| Structure (SMILES) | Potency | activity change, negative = cytotoxicity |
| --- | --- | --- |
| CC(C)C[C@H](NC(=O)c1[nH]cnc1C(=O)N[C@@H](Cc1ccccc1)C(=O)OC(C)(C)C)C(=O)OCc1ccccc1 |  | inactive: -24.1% |
| CSc1nc2ccc(Br)cc2[nH]1 |  | inactive: -9.74% |
| COc1ccccc1/C=N\Nc1cn[nH]c(=O)c1Cl | active: 8.2 µM |  |
